Measurements taken from paper PMC12706077.
No constants are given. Whether binding was seen depends on the method and setting. Binding seen in cells or lysates may run through a third protein. A yes stands for co-enrichment or nearness to the bait. Other partners may have been found.

By UniProt entry, the sequences of proteins in these tests, tags left out. Where a name states a change or a piece, a line headed by the entry shows the natural chain unless it says otherwise. Residues count along the entry.
UniProt P01024, residues 23-1663: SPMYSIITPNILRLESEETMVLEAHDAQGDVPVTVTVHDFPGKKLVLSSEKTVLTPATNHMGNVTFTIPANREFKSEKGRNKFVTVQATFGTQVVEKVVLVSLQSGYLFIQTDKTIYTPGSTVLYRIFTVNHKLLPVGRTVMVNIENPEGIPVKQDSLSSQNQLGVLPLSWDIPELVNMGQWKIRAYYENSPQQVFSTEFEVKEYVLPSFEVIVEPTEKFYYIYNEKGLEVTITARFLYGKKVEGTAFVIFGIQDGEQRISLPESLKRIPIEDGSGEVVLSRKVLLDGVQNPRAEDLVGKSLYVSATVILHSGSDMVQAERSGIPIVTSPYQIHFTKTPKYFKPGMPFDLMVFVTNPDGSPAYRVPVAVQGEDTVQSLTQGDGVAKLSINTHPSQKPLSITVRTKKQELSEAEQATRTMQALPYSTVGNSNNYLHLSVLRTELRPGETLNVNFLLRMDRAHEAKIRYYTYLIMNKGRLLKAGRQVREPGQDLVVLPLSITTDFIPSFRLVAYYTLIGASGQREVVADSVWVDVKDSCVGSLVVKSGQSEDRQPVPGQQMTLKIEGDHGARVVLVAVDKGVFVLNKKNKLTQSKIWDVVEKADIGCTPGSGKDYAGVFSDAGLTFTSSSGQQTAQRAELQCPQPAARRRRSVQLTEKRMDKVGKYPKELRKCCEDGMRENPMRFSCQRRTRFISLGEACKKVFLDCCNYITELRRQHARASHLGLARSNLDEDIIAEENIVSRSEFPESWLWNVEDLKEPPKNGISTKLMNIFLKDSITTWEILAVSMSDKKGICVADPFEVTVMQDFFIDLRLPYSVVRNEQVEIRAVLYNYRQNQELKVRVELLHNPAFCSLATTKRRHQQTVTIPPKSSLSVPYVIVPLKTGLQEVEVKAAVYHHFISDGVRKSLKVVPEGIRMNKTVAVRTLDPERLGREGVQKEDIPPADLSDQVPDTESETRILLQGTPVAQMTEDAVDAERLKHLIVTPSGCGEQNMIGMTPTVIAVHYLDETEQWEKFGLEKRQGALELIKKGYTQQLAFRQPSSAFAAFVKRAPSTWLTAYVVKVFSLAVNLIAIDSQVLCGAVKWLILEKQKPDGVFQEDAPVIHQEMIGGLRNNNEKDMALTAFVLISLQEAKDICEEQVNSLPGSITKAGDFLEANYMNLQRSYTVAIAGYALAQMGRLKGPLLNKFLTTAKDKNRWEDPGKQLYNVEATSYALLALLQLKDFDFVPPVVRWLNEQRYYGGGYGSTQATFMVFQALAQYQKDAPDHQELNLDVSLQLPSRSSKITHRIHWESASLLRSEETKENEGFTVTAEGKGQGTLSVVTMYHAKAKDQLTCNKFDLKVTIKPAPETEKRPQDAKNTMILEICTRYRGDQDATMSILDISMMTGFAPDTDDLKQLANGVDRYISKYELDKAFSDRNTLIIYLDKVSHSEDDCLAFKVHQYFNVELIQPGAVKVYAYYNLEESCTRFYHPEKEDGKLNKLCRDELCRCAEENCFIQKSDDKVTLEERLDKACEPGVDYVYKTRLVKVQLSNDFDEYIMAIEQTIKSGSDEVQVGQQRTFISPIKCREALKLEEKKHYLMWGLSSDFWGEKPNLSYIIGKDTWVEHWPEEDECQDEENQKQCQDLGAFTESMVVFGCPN
UniProt P00747: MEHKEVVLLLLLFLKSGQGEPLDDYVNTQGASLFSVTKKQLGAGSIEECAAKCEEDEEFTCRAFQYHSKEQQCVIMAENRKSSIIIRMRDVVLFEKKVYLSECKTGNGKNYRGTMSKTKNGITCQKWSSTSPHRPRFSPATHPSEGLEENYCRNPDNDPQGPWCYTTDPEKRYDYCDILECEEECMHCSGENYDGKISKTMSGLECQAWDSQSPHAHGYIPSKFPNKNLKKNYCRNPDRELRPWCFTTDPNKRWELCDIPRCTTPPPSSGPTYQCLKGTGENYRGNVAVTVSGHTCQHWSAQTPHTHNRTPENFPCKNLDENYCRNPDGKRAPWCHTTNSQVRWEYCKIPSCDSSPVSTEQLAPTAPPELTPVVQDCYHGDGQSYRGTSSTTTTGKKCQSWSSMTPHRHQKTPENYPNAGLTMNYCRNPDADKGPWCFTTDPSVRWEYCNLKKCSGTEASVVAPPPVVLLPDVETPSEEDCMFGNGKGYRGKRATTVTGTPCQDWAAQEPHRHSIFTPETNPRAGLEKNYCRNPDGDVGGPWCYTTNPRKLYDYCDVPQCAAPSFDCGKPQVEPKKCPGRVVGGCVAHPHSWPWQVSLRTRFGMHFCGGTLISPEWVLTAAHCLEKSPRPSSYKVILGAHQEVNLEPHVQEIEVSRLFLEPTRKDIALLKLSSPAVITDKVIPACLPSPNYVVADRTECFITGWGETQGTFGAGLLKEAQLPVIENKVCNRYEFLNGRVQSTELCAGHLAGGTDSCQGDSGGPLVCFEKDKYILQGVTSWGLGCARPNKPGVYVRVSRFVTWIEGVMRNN

B1: nidogen-1 (NID1) (protein, UniProt P14543 29-1247)
chain: LSRQELFPFGPGQGDLELEDGDDFVSPALELSGALRFYDRSDIDAVYVTTNGIIATSEPPAKESHPGLFPPTFGAVAPFLADLDTTDGLGKVYYREDLSPSITQRAAECVHRGFPEISFQPSSAVVVTWESVAPYQGPSRDPDQKGKRNTFQAVLASSDSSSYAIFLYPEDGLQFHTTFSKKENNQVPAVVAFSQGSVGFLWKSNGAYNIFANDRESVENLAKSSNSGQQGVWVFEIGSPATTNGVVPADVILGTEDGAEYDDEDEDYDLATTRLGLEDVGTTPFSYKALRRGGADTYSVPSVLSPRRAATERPLGPPTERTRSFQLAVETFHQQHPQVIDVDEVEETGVVFSYNTDSRQTCANNRHQCSVHAECRDYATGFCCSCVAGYTGNGRQCVAEGSPQRVNGKVKGRIFVGSSQVPIVFENTDLHSYVVMNHGRSYTAISTIPETVGYSLLPLAPVGGIIGWMFAVEQDGFKNGFSITGGEFTRQAEVTFVGHPGNLVIKQRFSGIDEHGHLTIDTELEGRVPQIPFGSSVHIEPYTELYHYSTSVITSSSTREYTVTEPERDGASPSRIYTYQWRQTITFQECVHDDSRPALPSTQQLSVDSVFVLYNQEEKILRYALSNSIGPVREGSPDALQNPCYIGTHGCDTNAACRPGPRTQFTCECSIGFRGDGRTCYDIDECSEQPSVCGSHTICNNHPGTFRCECVEGYQFSDEGTCVAVVDQRPINYCETGLHNCDIPQRAQCIYTGGSSYTCSCLPGFSGDGQACQDVDECQPSRCHPDAFCYNTPGSFTCQCKPGYQGDGFRCVPGEVEKTRCQHEREHILGAAGATDPQRPIPPGLFVPECDAHGHYAPTQCHGSTGYCWCVDRDGREVEGTRTRPGMTPPCLSTVAPPIHQGPAVPTAVIPLPPGTHLLFAQTGKIERLPLEGNTMRKTEAKAFLHVPAKVIIGLAFDCVDKMVYWTDITEPSIGRASLHGGEPTTIIRQDLGSPEGIAVDHLGRNIFWTDSNLDRIEVAKLDGTQRRVLFETDLVNPRGIVTDSVRGNLYWTDWNRDNPKIETSYMDGTNRRILVQDDLGLPNGLTFDAFSSQLCWVDAGTNRAECLNPSQPSRRKALEGLQYPFAVTSYGKNLYFTDWKMNSVVALDLAISKETDAFQPHKQTRLYGITTALSQCPQGHNYCSVNNGGCTHLCLATPGSRTCRCPDNTLGVDCIEQK

Target: complement C3, from plasma, purified by the C3-specific nanobody hC3Nb2 (human (endogenous in plasma)) (UniProt P01024)
Test: affinity purification with mass spectrometry; plasma C3 captured by His-tagged nanobody hC3Nb2 on NTA-Co2+ magnetic beads; pre-cleared human EDTA-plasma (4 healthy controls, 4 SLE patients) in PBS, 0.02% Tween-20; 1 h; washes with 600 mM NaCl; blank beads as negative control

Molecule	binding
plasminogen (PLG) (from UniProt P00747)	binds
B1	binds
